Reference: patent publication US20220204643A1
Where two headings read alike, the source gives them in different places. Results are given in words; binding and its absence hold for the method and conditions named. Some results given as binding are weak or reduced against the parent protein; the word gives no strength.

What was measured:
[1] = biological target: T1, endoplasmic reticulum protein 27, transcript variant 1 (human) (UniProt Q96DN0); test: protein array
T1 sequence: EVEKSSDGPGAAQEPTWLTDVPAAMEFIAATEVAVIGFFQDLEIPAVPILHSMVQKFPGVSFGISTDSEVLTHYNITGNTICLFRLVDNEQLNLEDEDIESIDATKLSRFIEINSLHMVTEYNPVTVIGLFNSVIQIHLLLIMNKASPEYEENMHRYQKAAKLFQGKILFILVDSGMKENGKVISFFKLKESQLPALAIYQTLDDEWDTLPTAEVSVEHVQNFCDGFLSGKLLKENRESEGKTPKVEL

[2] = biological target: T1, endoplasmic reticulum protein 27, transcript variant 1 (human)
[3] = biological target: T2, radial spoke head 14 homolog (human) (UniProt Q9UHP6); test: protein array
T2 sequence: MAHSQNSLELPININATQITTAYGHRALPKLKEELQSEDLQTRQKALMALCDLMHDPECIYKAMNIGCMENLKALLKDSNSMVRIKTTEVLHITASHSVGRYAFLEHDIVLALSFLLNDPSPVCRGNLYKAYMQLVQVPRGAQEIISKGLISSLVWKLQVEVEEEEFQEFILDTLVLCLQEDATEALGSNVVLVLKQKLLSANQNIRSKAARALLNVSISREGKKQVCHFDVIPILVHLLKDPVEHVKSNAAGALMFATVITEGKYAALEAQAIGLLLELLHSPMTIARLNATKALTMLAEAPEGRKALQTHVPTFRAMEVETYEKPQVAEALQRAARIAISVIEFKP

[4] = biological target: T2, radial spoke head 14 homolog (human)
protein array = substrate: C-C motif chemokine ligand 2 (human) (UniProt P13500); test: protein array
[5] = substrate: C-C motif chemokine ligand 2 (human) (UniProt P13500)
[6] = biological target: T3, phospholipase C delta 4 (human) (UniProt Q9BRC7); test: protein array
T3 sequence: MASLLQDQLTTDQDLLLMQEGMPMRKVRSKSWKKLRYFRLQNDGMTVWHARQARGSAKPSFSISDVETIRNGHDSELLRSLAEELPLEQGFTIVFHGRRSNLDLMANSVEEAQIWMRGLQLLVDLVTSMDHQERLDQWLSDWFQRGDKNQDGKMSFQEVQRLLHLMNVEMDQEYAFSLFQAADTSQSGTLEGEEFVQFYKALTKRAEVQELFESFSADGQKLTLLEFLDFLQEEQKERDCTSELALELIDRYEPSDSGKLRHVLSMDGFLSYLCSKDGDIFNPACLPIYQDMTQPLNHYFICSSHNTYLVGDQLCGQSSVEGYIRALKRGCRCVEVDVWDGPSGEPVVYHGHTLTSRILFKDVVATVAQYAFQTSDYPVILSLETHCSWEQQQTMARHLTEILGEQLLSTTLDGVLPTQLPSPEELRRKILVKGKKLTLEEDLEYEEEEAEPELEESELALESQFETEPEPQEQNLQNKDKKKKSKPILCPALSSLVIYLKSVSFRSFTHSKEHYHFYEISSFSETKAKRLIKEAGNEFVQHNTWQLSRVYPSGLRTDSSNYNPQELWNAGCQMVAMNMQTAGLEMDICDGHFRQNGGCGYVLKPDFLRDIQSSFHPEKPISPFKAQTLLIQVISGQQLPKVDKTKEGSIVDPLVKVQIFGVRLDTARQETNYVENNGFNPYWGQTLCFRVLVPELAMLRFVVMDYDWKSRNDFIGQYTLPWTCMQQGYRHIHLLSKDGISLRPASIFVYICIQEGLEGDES

[7] = biological target: T3, phospholipase C delta 4 (human)
[8] = biological target: quinoid dihydropteridine reductase, transcript variant 1 (human) (UniProt P09417); test: protein array
[9] = biological target: signal transducer and activator of transcription 5A, transcript variant 2 (human) (UniProt P42229); test: protein array
[10] = biological target: quinoid dihydropteridine reductase, transcript variant 1 (human) (UniProt P09417)
[11] = biological target: signal transducer and activator of transcription 5A, transcript variant 2 (human) (UniProt P42229)
[12] = biological target: T4, leucine rich repeat containing 14, transcript variant 1 (human) (UniProt Q15048); test: protein array
T4 sequence: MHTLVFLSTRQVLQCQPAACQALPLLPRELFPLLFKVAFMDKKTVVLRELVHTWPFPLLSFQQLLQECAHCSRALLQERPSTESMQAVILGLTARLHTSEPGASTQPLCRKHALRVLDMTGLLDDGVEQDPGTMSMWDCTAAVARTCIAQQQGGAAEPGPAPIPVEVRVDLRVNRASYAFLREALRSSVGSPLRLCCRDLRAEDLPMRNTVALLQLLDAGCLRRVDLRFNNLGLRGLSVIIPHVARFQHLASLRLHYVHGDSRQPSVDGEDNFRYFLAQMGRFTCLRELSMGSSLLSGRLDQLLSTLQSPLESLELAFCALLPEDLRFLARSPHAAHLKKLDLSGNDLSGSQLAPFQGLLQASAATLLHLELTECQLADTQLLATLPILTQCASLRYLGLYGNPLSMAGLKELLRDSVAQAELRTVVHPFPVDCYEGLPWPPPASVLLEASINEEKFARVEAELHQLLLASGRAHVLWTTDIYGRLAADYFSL

[13] = biological target: T5, regulator of G protein signaling 14, transcript variant 1 (human) (UniProt O43566); test: protein array
T5 sequence: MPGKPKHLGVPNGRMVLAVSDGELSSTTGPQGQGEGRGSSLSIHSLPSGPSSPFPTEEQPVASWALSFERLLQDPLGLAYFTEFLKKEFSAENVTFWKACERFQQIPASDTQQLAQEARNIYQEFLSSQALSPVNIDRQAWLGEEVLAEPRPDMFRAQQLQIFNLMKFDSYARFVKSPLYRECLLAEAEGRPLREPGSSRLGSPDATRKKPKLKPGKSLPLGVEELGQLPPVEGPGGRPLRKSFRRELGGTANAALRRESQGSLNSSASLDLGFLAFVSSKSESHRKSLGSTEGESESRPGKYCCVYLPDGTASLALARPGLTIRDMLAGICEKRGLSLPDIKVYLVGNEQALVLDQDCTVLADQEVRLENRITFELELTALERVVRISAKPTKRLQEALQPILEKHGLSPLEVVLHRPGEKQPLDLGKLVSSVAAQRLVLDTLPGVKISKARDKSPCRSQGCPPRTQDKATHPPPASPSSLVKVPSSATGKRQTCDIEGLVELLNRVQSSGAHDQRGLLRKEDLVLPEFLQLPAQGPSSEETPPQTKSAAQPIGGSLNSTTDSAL

[14] = biological target: T4, leucine rich repeat containing 14, transcript variant 1 (human)
[15] = biological target: T5, regulator of G protein signaling 14, transcript variant 1 (human)
Caspase 8 (human) [16] = biological target: Caspase 8 (human) (UniProt Q14790); test: protein array
Caspase 8 (human) [17] = biological target: Caspase 8 (human) (UniProt Q14790)
[18] = biological target: T6, Cytochrome b5 reductase 2 (human) (UniProt Q6BCY4); test: protein array
T6 sequence: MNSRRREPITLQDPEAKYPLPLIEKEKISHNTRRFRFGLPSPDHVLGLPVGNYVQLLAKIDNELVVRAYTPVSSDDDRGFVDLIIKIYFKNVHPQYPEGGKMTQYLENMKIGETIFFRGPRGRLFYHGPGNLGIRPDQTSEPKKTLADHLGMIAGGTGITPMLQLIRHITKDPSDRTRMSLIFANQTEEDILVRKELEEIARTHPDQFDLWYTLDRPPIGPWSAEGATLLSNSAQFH

[19] = biological target: T6, Cytochrome b5 reductase 2 (human)
[20] = biological target: DIX domain containing 1, transcript variant 2 (human) (UniProt Q155Q3); test: protein array
[21] = biological target: DIX domain containing 1, transcript variant 2 (human) (UniProt Q155Q3)

B1: TPAN1002 (antibody, V domains shown)
VH: QVQLVQSGTEMKRPGSSVKVSCKASGGTFNFYAINWVRQAPGQGLEWMGGIVPIFDTTTYAQRFQGRVTITADESTTTVHMELSSLRFDDTAVYYCARDQSGADRFDSWGQGTLVTVSS
VL: QSALTQPASVSGSPGQSITISCTGTTSDVGTYNLVSWYQQLPGKAPKLIIYEVTKRPSGVSNRFSASKSGSTASLTISGLQAEDEADYYCCSYAGSSTYVFGSGARVTVLG
[1]
  binding: binds
[2]
  binding: binds

B2: TREC1001 (antibody, V domains shown)
VH: QEQLVQSGAEVKKPGSSVKVSCKVSGGPFKTYPINWVRQAPGQGLEWMGGITPNSGTPNYAQKFQGRVTITADESTTTVYMQLSSLRSEDTAVYYCARVHNWDFYYGMDVWGLGTTVTVSS
VL: QSVLTQPPSASGTPGQRVTISCSGSSSNIGSNTVNWYQQFPGTAPKLLIYSNNHRPLGVPDRFSGSKSGTSASLAISEVRSEDEADYYCATWDDSLNGGVFGAGTKLTVVG
[3]
  binding: binds
[4]
  binding: binds

B3: TREC1002 (antibody, V domains shown)
VH: EVQVVESGGGLVQPGRSLRLSCTPSGFTFGDNAMGWFRQAPGKGLEWVGFIRSKAYGGTRDYAASVKGRFTISRDDSKSIAYLQMNSLKTEDTAVYYCTRERPPNCGSSCPETWGQGTLVTVSS
VL: PAVVTQEPSLTVSPGGTVTLTCGSSTGVVTTGHYPYWFQQKPGQAPTTLIFDTSNKHSWTPARFSGSLLGGKAALTLSAAQPEDEADYYCWLISGGAPVFGGGTKLTVLG
Protein array
  binding: binds
[5]
  binding: binds

B4: TSAR1002 (antibody, V domains shown)
VH: EVQLVESGGGLVQPGGSLRLSCAASGFTFSSYSMNWVRQAPGKGLEWVSYISSSSSTIYYADSVKGRFTISRDNAKNSLYLQMNSLRAEDTAVYYCARDIALGRGGMDVWGQGTTVTVSS
VL: AIQMTQSPSSLSASVGDRVTITCRASQGIRNDLGWYQQKPGKAPKLLIYAASSLQSGVPSRFSGSGSGTDFTLTISSLQPEDFATYYCLQDYNYPPTFGQGTKVEIKR
[6]
  binding: binds
[7]
  binding: binds

B5: TSAR1007 (antibody, V domains shown)
VH: EVQLVESGGGVVRPGGSLRLSCAASGFTFDDYGMSWVRQAPGKGLEWVSGIHWNGGSTGYADSVKGRFTISRDNAKNSLYLQMNSLRAEDTALYHCARSTASSGYYDAFDIWGQGTMVTVSS
VL: LYVLTQPPSVSVAPGQTARITCGGNNIGSKSVHWYQQKPGQAPVLVVYDDSDRPSGIPERFSGSNSGNTATLTISRVEAGDEADYYCQVWDSSSDHWIFGGGTKLTVLG
[8]
  binding: binds
[9]
  binding: binds
[10]
  binding: binds
[11]
  binding: binds

B6: TSTO1007 (antibody, V domains shown)
VH: PVQLVQSGAQVKKPGASVRLSCKSSGYTFSNYAIHWLRQAPGQRLEWVGWIHVGNDHTRYSQSFQGRVTISADTSANTAYMEVRGLRSEDTSLFYCARAGAEGVDYWGQGTQVTVSS
VL: RSVLTQPPSASGTPGQTVTISCSGSRSNIGSNFVYWYQHLPGSAPKTTIHSNTQRPPGVPDRFSGSKSGTSASLAISGLRSEDEADYYCVTWDDDLHGWVFGGGTRLTVLG
[12]
  binding: binds
[13]
  binding: binds
[14]
  binding: binds
[15]
  binding: binds

B7: TTES1002 (antibody, V domains shown)
VH: QVQLQESGPGLVKPSETLSLICTVSGASVNSGTHFWSWIRQPPGKGLEWIGYVYYSGNTNYNPSLKSRVAISVDTSKNQFSLKLTSVTSADTAVYYCARDFDDGYDIRYWGQGTRVSVSS
VL: QSALTQPASVSGSPGQSITISCTGSSNDIGRYKYVSWFQHHPGRAPKLIIYEVNNRPSGLSHRFSGSKSGNTASLTISGLQAEDEADYYCCSYTSSLTYVFGTGTAVTVL
Caspase 8 (human) [16]
  binding: binds
Caspase 8 (human) [17]
  binding: binds

B8: TTES1005 (antibody, V domains shown)
VH: QLQLQESGPGLVKPSETLSLTCTVAGDSISRSNYYWAWIRQPPGKGLEWIGSIIHTGTTYHNPSLRSRGTILVDTSKNQFSLKLSSVTAADTGLYYCARHSGHDQLPLDFDNWGQGTLVTVSS
VL: ENVLTQSPGTLSLSPGERATLSCRASQRVNSNYLAWYQQKSGQAPRLLIYGASSRATGIPDRFSGSGSGTDFTLTISRLEPEDFAVYYCQQYGGSPLFTFGPGTKVDIKR
[18]
  binding: binds
[19]
  binding: binds

B9: TTHY1001 (antibody, V domains shown)
VH: EVQLLESGGGLVQPGGSLRLSCVASGFTFASYGMAWVRQAPGQGLTWICFVGSGDTTHYAESVKGRFTCSRDNSNNTLYLHMSGLRGADTAKYYCAKPNSPFTGSGSFHNYFDYWGQGALVIVSS
VL: DIQMTQSPSSLSASVGDRVTFTCRASQNIRNNLAWYQLKPGKAPQLLIYSASSLETGVPSRFSGSGSGTDFTLAISSLQPEDFATYYCQQAHGFPITFGQGS
[20]
  binding: binds
[21]
  binding: binds
